According to article PMC10732327:
No constants are given. Whether binding was seen depends on the method and setting. In cells and extracts the contact can be indirect. A yes stands for co-enrichment or nearness to the bait. Other partners may have been found.

Protein sequences, listed by entry. Tags and fused reporters are not part of them.
UniProt Q13535: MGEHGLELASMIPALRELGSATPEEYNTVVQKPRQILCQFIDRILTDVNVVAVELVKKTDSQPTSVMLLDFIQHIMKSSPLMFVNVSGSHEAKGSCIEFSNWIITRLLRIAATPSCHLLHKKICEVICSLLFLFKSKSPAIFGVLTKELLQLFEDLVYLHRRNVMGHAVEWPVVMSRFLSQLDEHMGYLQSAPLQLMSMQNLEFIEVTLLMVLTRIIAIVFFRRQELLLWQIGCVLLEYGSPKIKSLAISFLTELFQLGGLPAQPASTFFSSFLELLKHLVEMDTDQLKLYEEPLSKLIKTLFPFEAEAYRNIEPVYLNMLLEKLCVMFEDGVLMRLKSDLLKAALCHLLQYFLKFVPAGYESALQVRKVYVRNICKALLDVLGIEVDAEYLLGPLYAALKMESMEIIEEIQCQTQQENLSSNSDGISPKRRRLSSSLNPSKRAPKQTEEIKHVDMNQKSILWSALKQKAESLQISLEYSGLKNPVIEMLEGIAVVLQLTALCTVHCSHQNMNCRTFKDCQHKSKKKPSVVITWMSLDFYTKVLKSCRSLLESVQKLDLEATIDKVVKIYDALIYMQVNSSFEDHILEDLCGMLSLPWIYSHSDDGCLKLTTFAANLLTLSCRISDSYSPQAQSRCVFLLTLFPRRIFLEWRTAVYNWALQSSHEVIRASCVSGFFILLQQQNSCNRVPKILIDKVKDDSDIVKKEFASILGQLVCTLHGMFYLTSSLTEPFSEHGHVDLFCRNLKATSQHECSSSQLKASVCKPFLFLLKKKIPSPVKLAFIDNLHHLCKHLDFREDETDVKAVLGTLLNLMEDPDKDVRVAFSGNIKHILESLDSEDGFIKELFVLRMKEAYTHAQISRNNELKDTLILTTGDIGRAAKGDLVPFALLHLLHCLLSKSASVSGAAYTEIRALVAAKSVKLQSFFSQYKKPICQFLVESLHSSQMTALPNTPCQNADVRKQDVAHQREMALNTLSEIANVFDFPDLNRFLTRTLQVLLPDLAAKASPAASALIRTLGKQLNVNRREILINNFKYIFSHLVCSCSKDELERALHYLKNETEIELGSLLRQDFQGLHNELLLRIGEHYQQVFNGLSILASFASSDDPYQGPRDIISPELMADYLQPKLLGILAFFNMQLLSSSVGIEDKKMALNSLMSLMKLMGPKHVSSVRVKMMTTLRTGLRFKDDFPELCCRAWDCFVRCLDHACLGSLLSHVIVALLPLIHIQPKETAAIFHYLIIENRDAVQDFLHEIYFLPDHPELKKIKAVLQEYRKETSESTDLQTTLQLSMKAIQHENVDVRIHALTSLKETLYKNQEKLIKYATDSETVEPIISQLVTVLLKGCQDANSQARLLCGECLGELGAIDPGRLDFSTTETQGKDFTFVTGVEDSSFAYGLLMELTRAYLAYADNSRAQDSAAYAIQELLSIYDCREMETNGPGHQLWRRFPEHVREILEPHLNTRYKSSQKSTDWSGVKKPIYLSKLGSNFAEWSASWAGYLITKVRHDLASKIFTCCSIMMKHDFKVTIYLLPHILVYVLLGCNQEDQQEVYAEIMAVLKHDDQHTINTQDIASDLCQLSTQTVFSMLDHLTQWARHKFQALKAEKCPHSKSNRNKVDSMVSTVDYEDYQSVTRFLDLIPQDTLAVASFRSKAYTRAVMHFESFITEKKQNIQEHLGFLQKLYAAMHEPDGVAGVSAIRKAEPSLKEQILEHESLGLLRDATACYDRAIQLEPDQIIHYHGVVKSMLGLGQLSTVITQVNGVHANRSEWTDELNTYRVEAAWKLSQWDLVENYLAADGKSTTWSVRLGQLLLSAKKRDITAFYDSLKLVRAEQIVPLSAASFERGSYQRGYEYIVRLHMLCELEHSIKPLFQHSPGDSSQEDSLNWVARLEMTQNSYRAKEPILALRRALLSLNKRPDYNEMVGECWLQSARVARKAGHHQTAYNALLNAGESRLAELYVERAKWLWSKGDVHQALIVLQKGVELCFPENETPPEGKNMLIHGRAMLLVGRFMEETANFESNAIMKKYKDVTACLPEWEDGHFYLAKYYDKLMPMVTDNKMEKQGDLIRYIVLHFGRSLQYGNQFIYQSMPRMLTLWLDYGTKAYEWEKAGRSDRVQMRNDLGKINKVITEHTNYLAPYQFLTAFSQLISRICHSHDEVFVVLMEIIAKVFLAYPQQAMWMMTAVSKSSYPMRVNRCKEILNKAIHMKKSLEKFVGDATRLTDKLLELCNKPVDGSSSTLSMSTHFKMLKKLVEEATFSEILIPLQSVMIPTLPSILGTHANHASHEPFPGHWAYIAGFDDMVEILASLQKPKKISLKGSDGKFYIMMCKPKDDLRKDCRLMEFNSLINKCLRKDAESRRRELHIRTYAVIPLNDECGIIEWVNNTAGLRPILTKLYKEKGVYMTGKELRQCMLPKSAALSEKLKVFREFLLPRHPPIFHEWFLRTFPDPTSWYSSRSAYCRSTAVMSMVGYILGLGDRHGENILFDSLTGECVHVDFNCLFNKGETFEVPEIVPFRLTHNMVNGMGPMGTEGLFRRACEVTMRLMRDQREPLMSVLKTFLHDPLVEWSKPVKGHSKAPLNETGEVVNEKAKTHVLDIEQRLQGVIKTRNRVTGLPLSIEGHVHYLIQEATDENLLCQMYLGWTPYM

Biological target: Flag-USP20 expressed in HCC cells (UniProt Q9Y2K6)
Assay: affinity purification with mass spectrometry; Flag-USP20 ectopically expressed in HCC cells; immunoprecipitation (IP)-based MS

## ATR, endogenous (from UniProt Q13535 1-2644) (enzyme)
  binding: binds
